pEC50: −log10 of the molar value. Structures were worked out from names or drawings and are uncertain. Marks after values point to notes of the source that are not given here.

Amino acid sequences for entries named in this document (tags omitted). Residues count along the entry.
UniProt P41180, 20-1078 limits assumed: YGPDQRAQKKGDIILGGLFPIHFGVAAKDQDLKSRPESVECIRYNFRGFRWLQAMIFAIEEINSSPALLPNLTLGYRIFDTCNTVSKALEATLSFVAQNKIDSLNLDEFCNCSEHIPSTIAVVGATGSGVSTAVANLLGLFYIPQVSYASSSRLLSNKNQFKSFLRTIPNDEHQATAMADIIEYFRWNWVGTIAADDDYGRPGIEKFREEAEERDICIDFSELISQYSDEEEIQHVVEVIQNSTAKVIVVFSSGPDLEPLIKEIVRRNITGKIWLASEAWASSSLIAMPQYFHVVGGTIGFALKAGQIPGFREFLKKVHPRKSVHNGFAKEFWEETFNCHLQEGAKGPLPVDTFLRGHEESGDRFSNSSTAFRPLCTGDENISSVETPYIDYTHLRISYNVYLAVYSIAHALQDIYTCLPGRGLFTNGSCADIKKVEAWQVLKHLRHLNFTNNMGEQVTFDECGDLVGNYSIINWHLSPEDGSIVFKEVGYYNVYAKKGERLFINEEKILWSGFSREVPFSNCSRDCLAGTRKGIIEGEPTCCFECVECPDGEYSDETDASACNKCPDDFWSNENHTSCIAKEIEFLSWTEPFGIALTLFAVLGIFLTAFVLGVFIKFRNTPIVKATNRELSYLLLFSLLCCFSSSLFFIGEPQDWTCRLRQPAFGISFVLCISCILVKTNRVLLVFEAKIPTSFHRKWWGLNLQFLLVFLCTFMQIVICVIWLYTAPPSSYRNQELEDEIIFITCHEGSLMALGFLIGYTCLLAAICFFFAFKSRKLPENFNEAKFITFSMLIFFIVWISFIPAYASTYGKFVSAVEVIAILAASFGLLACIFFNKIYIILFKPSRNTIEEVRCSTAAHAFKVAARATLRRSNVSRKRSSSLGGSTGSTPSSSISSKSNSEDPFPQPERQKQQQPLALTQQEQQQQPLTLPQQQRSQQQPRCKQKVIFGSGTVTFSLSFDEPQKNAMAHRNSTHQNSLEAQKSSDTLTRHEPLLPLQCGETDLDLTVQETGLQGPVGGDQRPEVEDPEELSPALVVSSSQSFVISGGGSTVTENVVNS

The target in one assay is human CaSR (Homo sapiens, UniProt P41180). Put plainly: Human calcium sensing receptor (CaSR) agonistic activity test (FLIPR, Fluo-3 intracellular Ca2+). The conditions noted are these: read-out: EC50 (compound concentration showing 50% activity), human CaSR agonistic activity; HEK 293 cell stably expressing human CaSR; 0.5 mM Ca2+ buffer; solvent group 0%, 2 mM Ca2+ group 100%; tested form: HCl. The text has this: Test 1. Human Calcium Sensing Receptor (CaSR) Agonistic Activity Test
• 1) Preparation of Human CaSR Expression Vector
A DNA fragment coding for human CaSR was cloned in the standard method. Illustratively, using 203 to 2387 of NM_000388 as a DNA fragment D4, and 2210 to 3633 as a DNA fragment B2, they were amplified using a human kidney cDNA (mfd. by Invitrogen) as the template and using a DNA polymerase (a registered trade name: Pyrobest, mfd. by Takara Bio), and respectively cloned into a pCR2.1 vector using a pCR2.1-Topo vector (mfd. by Invitrogen). Next, DNA fragments prepared by digesting pCR2.1-D4 with SpeI and XbaI were inserted into the same sites of pcDNA3.1/Zeo(+) vector. Successively, the fragments prepared by digesting pCR2.1-B2 with SacI and XbaI were inserted into the SacI and XbaI sites of previously prepared pcDNA3.1/Zeo(+)-D4 (SpeI-XbaI), thereby obtaining a human CaSR expression vector pcDNA3.1/Zeo(+)-hCaSR in which human CaSR open reading frame (ORF) was contained in the pcDNA3.1/Zeo(+) vector. • 2) Preparation of Human CaSR Expression Cell […]
The HEK 293 cell stably expressing human CaSR was inoculated into a poly-D-lysine-coated black clear bottom 96 well plate (mfd. by BD Bioscience). […] In this connection, the compound to be evaluated was used by optionally diluting with the washing buffer supplemented with 0.5 mM Ca^2+. […]

A short description of assay [1]: Measurement of rat plasma calcium concentration after single oral administration. The conditions noted are these: normal male rats, 1 mg/kg oral administration, tested form: HCl. How it is done: Test 2. Measurement of Rat Plasma Calcium Concentration and Plasma PTH Concentration
The compounds of the invention were administered to rats, and their influences upon the plasma calcium concentration and plasma PTH concentration were examined. The test was carried out by single oral administration of the compounds 5 or 6 normal male rats.
As a vehicle group, an MC solution prepared by adding 0.5% methyl cellulose (MC) solution or ethanol to a final concentration of 5% was administered at a dose of 5 ml/kg. As the comparative control, cinacalcet was dissolved in the MC solution and administered at a dose of 3 mg/kg. Each of the compounds, of the invention was dissolved or suspended the MC solution, or dissolved in ethanol and then diluted with the MC solution as occasion demands, and administered at a dose of 1, 3 or 10 mg/kg.
Blood samples were collected from the orbital venous plexus under ether anesthesia before the administration and 2Hours, 4Hours, or 8Hours in some cases, after the administration, and the plasma calcium concentration was measured using Calcium E-Test Wako (mfd. by Wako Pure Chemical Industries), and the plasma PTH concentration using Rat Intact PTH ELISA Kit (mfd. by Immutopics) or Rat Bioactive Intact PTH ELISA Kit (mfd. by Immutopics).

`C[C@@H](NC[C@H]1CN(c2ccc(C(=O)O)cc2)C[C@@H]1c1ccccc1)c1cccc2ccccc12`: the pEC50 on human CaSR was 8.16. For the same molecule, the “Rat plasma calcium concentration reducing ratio (%) 4 hours after administration” value in assay [1] is listed as 20* %.
